The campaign covered roughly 330,000 compounds. About 7,700 (2.3%) were called active. Inconclusive results, whose numbers are uncertain, are shown with a selection of clear calls. The call rests on the fitted dose curve; in most records, active means well fitted inhibition curve with a large enough effect; inconclusive means small, poorly fitted or top-dose-only effect, or effect the other way; inactive means flat fitted curve, though single readings scatter. Where the call is inconclusive, the potency comes from a doubtful curve fit.
experiment: qHTS screen for small molecules that inhibit ELG1-dependent DNA repair in human embryonic kidney (HEK293T) cells expressing luciferase-tagged ELG1; details: HEK293T ELG1-luciferase reporter, luminescence, 16 h, DNA damage induced by 5-fluorouridine; series mostly up to 46.1 µM; further: nearly all actives have a fitted effect of over 55% in size
How it was run: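 Reporter activity after DNA damage by 5-fluorouridine is monitored. Compound-treated cells incubate 16 hr at 37 °C, then ONE-Glo is added for 30 min before luminescence reading.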
Potency means the concentration at half of the fitted maximal effect.

Which Potency does the source give for `CCOC(=O)c1cc(CC)sc1NC(=O)c1cccc(N2C(=O)CCC2=O)c1` here?
Its Potency is active: 18.4 µM.

For `Cc1ccc2c(c1)sc1nc(=O)n(-c3ccc(Cl)c(Cl)c3)c(=O)n12`, which Potency is on record?
Its Potency is inconclusive: 2.31 µM [activator, full curve, poor fit].

For `COc1cc2c(cc1OC)CN(C(=O)C1(c3ccccc3)CC1)CC2`, which Potency is on record?
Its Potency is inconclusive: 23.1 µM [inhibitor, partial curve, poor fit].

With `O=C(NCc1cccs1)C1CCN(c2ccc(S(=O)(=O)N3CCOCC3)cc2Cl)CC1` as the compound, how does the Potency read?
The Potency was active: 18.4 µM.

For `O=C(/C=C/c1cccc([N+](=O)[O-])c1)Nc1ccccn1`, which Potency is on record?
Its Potency is inconclusive: 4.11 µM [activator, full curve].

With `CCN(CC)S(=O)(=O)c1ccc(N2CCOCC2)c(NC(=O)Cc2ccc(Cl)cc2)c1` as the compound, how does the Potency read?
Its Potency is inconclusive: 20.6 µM [inhibitor, single point].

With `CC(C)[C@H](NC(=O)c1ccccc1F)C(=O)OCC(=O)NC(=O)NC1CCCCC1` as the compound, how does the Potency read?
The Potency was “inactive”.

For `COc1ccccc1/C=C/C(=O)OCC(=O)N1CCN(S(=O)(=O)c2ccc(C)cc2C)CC1`, which Potency is on record?
The Potency was inconclusive: 16.4 µM [inhibitor, single point].

With `CCN(CC)CCNC(=O)C12CC3CC(CC(C3)C1)C2` as the compound, how does the Potency read?
Its Potency is “inactive”.

For `CC(C)(C)S(=O)(=O)c1cnc(-c2ccc(Cl)cc2)nc1N`, which Potency is on record?
The Potency was inconclusive: 6.51 µM [activator, partial curve].

Which Potency does the source give for `CCC(=O)Nc1ccc(/C=C(\C(C)=O)C(=O)c2ccccc2)cc1` here?
Its Potency is inconclusive: 29.1 µM [inhibitor, single point].

With `CCOC(=O)C1(Cc2cccc(OC)c2)CCN(CC2CC=CCC2)CC1` (centres undefined) as the compound, how does the Potency read?
The Potency was inconclusive: 29.1 µM [inhibitor, partial curve, poor fit].

Which Potency does the source give for `Cc1ccc2cc(CN(Cc3ccco3)C(=O)C3CCCCC3)c(=O)[nH]c2c1C` here?
Its Potency is inconclusive: 7.31 µM [inhibitor, partial curve, poor fit].

With `Cn1cc(CN2CCCC(CO)(Cc3cccc(Cl)c3)C2)cn1` (centres undefined) as the compound, how does the Potency read?
Its Potency is “inactive”.

With `O=C(c1cccs1)N1CCC(c2ccccc2)C1` (centres undefined) as the compound, how does the Potency read?
The Potency was inconclusive: 15.8 µM [activator, partial curve, poor fit].

For `CNC(=O)c1cc(Oc2ccc(NC(=O)Nc3ccc(Cl)c(C(F)(F)F)c3)cc2)ccn1`, which Potency is on record?
Its Potency is inconclusive: 9.2 µM [inhibitor, partial curve, poor fit].

With `O=C(O)CCN1C(=O)c2ccc(NC(=O)COc3ccccc3)cc2C1=O` as the compound, how does the Potency read?
Its Potency is “inactive”.

Which Potency does the source give for `COc1cc(C=C(C(C)=O)C(C)=O)ccc1O` here?
Its Potency is “inactive”.

With `CNCc1ccccc1OCC(=O)Nc1ccccc1OC` as the compound, how does the Potency read?
The Potency was inconclusive: 32.6 µM [activator, partial curve, poor fit].

For `C/C(=N/NC(=O)CN1CCN(Cc2ccccc2)CC1)c1ccc([N+](=O)[O-])cc1`, which Potency is on record?
The Potency was inconclusive: 20.6 µM [inhibitor, single point].

With `C=CCNC(=O)CSc1nc2cc(C(=O)OCC)ccc2n1CC` as the compound, how does the Potency read?
The Potency was “inactive”.

Which Potency does the source give for `CCOC(=O)N1N=C(C)CC1(O)c1ccccc1` (centres undefined) here?
The Potency was “inactive”.

Which Potency does the source give for `O=C(CSc1ccc2nnc(-c3ccc(Cl)cc3)n2n1)N1CCCc2ccccc21` here?
The Potency was inconclusive: 2.59 µM [inhibitor, partial curve].

With `CCOC(=O)CCNC(=O)Nc1ccc2nc(C)n(Cc3cccc(Cl)c3)c(=O)c2c1` as the compound, how does the Potency read?
Its Potency is inconclusive: 10.3 µM [inhibitor, partial curve, poor fit].

For `COCCn1c(-c2cccc([N+](=O)[O-])c2)nc2c1c(=O)[nH]c(=O)n2Cc1ccccc1`, which Potency is on record?
The Potency was inconclusive: 25.9 µM [inhibitor, single point].

With `COCCSc1nnc(NC(=O)C2CC(=O)N(CCc3ccc(F)cc3)C2)s1` (centres undefined) as the compound, how does the Potency read?
Its Potency is “inactive”.

For `CCc1ccc(NC(=O)Cn2nnc(C(=O)NCc3ccc(OC)cc3)c2N)cc1`, which Potency is on record?
Its Potency is “inactive”.

For `COc1cc(-c2noc(-c3ccccc3C(=O)NCc3ccco3)n2)cc(OC)c1OC`, which Potency is on record?
The Potency was active: 4.61 µM.

Which Potency does the source give for `CCN(CC)c1ccc(/C=N/n2c(=S)[nH]nc(C)c2=O)cc1` here?
The Potency was inconclusive: 20.6 µM [activator, partial curve, poor fit].

Which Potency does the source give for `O=C(NCC1CCCO1)c1ccc2c(=O)n(CC3CCCO3)c(SCC(=O)N3CCCC3)nc2c1` (centres undefined) here?
The Potency was “inactive”.

For `CCN(CC)C(=O)c1sc(NC(=O)C(Sc2ccccc2)c2ccccc2)c(C(=O)OC(C)C)c1C` (centres undefined), which Potency is on record?
The Potency was inconclusive: 29.1 µM [inhibitor, single point].

Which Potency does the source give for `O=C(c1cccc(S(=O)(=O)N2CCN(c3ccccc3)CC2)c1)N1CCN(c2ccccc2O)CC1` here?
Its Potency is “inactive”.

With `CC(C)(C)c1ccc(C(=O)NCCC(=O)NCc2cccs2)cc1` as the compound, how does the Potency read?
Its Potency is inconclusive: 29.1 µM [activator, partial curve, poor fit].

For `COc1cccc2c1C(=O)c1c(O)c3c(c(O)c1C2=O)C[C@@](O)(C(C)=O)C[C@@H]3O[C@H]1C[C@H](N)[C@H](O)[C@H](C)O1`, which Potency is on record?
Its Potency is active: 3.26 µM.

With `CCN(CC)CCN(C(=O)c1ccc2c(c1)CCCC2)c1nc2ccc(C)cc2s1` as the compound, how does the Potency read?
Its Potency is “inactive”.

For `CCSc1nnc(NC(=O)c2cc3c(s2)CCCC3)s1`, which Potency is on record?
Its Potency is inconclusive: 3.26 µM [activator, full curve].

For `O=C(O)CCCCCNc1nc2ncn(Cc3ccccc3)c2c(=O)[nH]1`, which Potency is on record?
The Potency was “inactive”.

For `Cn1c2ccccc2c2c(C(=O)NCc3ccco3)cn(C3CCCCC3)c(=O)c21`, which Potency is on record?
The Potency was inconclusive: 29.1 µM [inhibitor, single point].

With `COc1ccc(CCNC(=O)CSc2nnc(Cc3cccn3C)n2C)cc1OC` as the compound, how does the Potency read?
Its Potency is “inactive”.

Which Potency does the source give for `CCOc1cccc(-c2nnc3sc(-c4ccc(C)cc4)nn23)c1` here?
The Potency was inconclusive: 29.1 µM [inhibitor, single point].

For `COc1ccc(N(CC(=O)NCCSc2ccccc2)S(=O)(=O)c2ccccc2)c(OC)c1`, which Potency is on record?
Its Potency is active: 20.6 µM.

Which Potency does the source give for `Cc1ccc2nc(-c3ccccc3)cc(C(=O)N3CCN(c4ccccc4O)CC3)c2c1` here?
The Potency was inconclusive: 16.4 µM [inhibitor, single point].

For `O=C(c1cc(COc2cccc(C(F)(F)F)c2)on1)N1C[C@H]2CC[C@H]1C2`, which Potency is on record?
The Potency was inconclusive: 16.4 µM [activator, partial curve].

For `Cc1ccc(CSCc2ccc(C(=O)NCCCN3CCOCC3)o2)cc1`, which Potency is on record?
Its Potency is “inactive”.
